In PubChem BioAssay AID493014 (National Center for Advancing Translational Sciences (NCATS), 2011):
The campaign covered roughly 340,000 compounds. About 170 (0.05%) were called active. Inconclusive means that the source gave no clear call. Such entries were picked first, then a sample of the others. Calls follow the shape of the dose curve; as a rule, active = well fitted inhibition curve with a large enough effect in the signal ratio, with a control signal flat (not every such curve was filed as active); inconclusive = small, poorly fitted or top-dose-only effect, or effect the other way, or a change in a side signal; inactive = flat fitted curve, though single readings scatter; the % refers to the signal ratio. Where the call is inconclusive, the potency comes from a doubtful curve fit.

Assay: qHTS Assay to Find Inhibitors of Chronic Active B-Cell Receptor Signaling;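 as to activity change, negative = inhibition: plate controls were basal doxycycline-induced cells for no effect and cells given 10 µM MG132 for full effect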
Conditions: ABC-DLBCL IkBa-CBG/CBR reporter, luminescence ratio (green luciferase fused to IkBa over red control in TMD8 lymphoma cells), 4 h; activity change, negative = inhibition: at 46.1 µM (top of the series) unless noted
Summary of the method: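 TMD8 ABC-DLBCL cells carrying doxycycline-inducible green luciferase fused to IkappaBalpha plus unfused red luciferase were exposed to compounds (up to 46 uM) for 4 hrs at 37C. Activity came from the overlap-corrected green/red luminescence ratio.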
Potency is read from the fitted curve at half-maximal effect.

SMILES	activity change, negative = inhibition	Potency
Cn1nc(-c2ccc(Cl)cc2)cc1NC(=O)CSCC(=O)O	inconclusive: -19.7%	
COc1cccc(OCCn2cc(C(=O)c3ccco3)c3ccccc32)c1		inconclusive: 23.1 µM [falling, partial curve]
Cc1ccnc(NS(=O)(=O)c2cc(C(F)(F)F)ccc2Cl)c1	inactive: -15.7%	
COC(=O)C1CCN(C(=O)CSc2nc3ccc(OC)cc3[nH]2)CC1		inconclusive: 31.6 µM [rising, single point]
CCOC(=O)C1(Cc2ccccc2C(F)(F)F)CCN(C2CCN(C(C)=O)CC2)CC1	inconclusive: -20.9%	
CC(=O)N1CCc2cc(S(=O)(=O)NC(Cc3ccccc3)C(=O)Nc3cc(C)ccn3)ccc21 (stereo not drawn)	inactive: 9.79%	
COc1ccc(Cl)cc1NC(=O)CN1CCC(n2nnc3cc(C)ccc32)CC1	inactive: -9.89%	
Cc1cccc(-c2nc(-c3ccncc3)no2)c1	inconclusive: -3.2%	
O=C(Cn1cccc1C(=O)c1ccccc1)NCc1ccccn1	inconclusive: -6.08%	
O=C1c2ccccc2C(=O)N1CCC#Cc1ccc2cc(CCCO)oc(=O)c2c1	inconclusive: -0.389%	
O=C(NCCN1CCCC1=O)Nc1ccccc1	inconclusive: 5.36%	
O=C(N/N=C/c1ccc(OCC(=O)N2CCCCC2)cc1)c1ccccc1		inconclusive: 31.6 µM [falling, single point]
CNc1nc(N/N=C/c2ccc([N+](=O)[O-])cc2)nc(Nc2ccccc2)n1	inconclusive: 6.37%	
CC(C)c1cc(C(=O)Nc2cccc(Cl)c2)no1		inconclusive: 25.1 µM [falling, partial curve]
CCOC(=O)c1[nH]c(C)c(C(=O)Nc2cc(OC)ccc2OC)c1C		inconclusive: 6.51 µM [cytotoxic, partial curve]
CCc1ccc(Sc2cc(C(=O)NCCCN3CCCC(C)C3)c3ccccc3n2)cc1 (stereo not drawn)		inconclusive: 12.6 µM [falling, partial curve, poor fit]
COC(=O)c1ccc(N/C=C/C(=O)c2ccccc2)cc1	inconclusive: -32.6%	
COC(=O)c1cc(=O)n(CCc2ccc(OC)c(OC)c2)c(=Nc2ccc(F)c(Cl)c2)s1	inactive: -5.53%	
N#Cc1ccc(C23CC4(C2)[C@H](CN(P(=O)(c2ccccc2)c2ccccc2)[C@@H]4c2ccccc2)C3c2ccc(Cl)nc2)cc1 (stereo partly drawn)		inconclusive: 12.6 µM [rising, partial curve, poor fit]
O=C(NCCc1ccc(Cl)cc1)c1ccc2nc(N3CCOCC3)sc2c1	inactive: -8.8%	
Cc1ccccc1NC(=S)NCc1cccn1C	inactive: -0.637%	

SMILES	activity change, negative = inhibition	Potency
CCOC(=O)C(=CNc1ccccc1C)C(=O)OCC		inconclusive: 18.4 µM [falling, partial curve, poor fit]
CN(C)CCCNc1ccc(-c2cc(Nc3cccc(Cl)c3)ncn2)cn1	inconclusive: 2.44%	
O=C(Oc1cccc([N+](=O)[O-])c1)c1cc(-c2ccccc2)nc2ccccc12		inconclusive: 2.82 µM [falling, partial curve, poor fit]
CNC(=O)c1c(NC(=O)c2ccc(S(=O)(=O)N3CCCCC3C)cc2)sc2c1CCN(C)C2 (stereo not drawn)	inactive: 4.69%	
C=CCN=Cc1c(C)[nH]n(-c2ccccc2)c1=O	inactive: 16.8%	
CC(=O)Nc1ccc(S(=O)(=O)n2nc(-c3ccc(C)cc3)nc2N)cc1	inconclusive: -0.479%	
N#CCCC12CCCCC1=Nc1ccccc12 (stereo not drawn)	inconclusive: 1.86%	
OC(COc1ccc(CNCCc2ccccc2F)cc1)CN1CCCCC1 (stereo not drawn)	inactive: -10.5%	
CC1c2c([nH]c3ccccc23)CCC1C(=O)O (stereo not drawn)		inconclusive: 5.8 µM [rising, full curve]
NC(=S)NNc1c(F)c(F)c(F)c(F)c1F	inconclusive: 2.4%	
C[C@H]1NC(=O)[C@@]2(C)[C@H](c3ccccc3)[C@H]3COc4ccccc4[C@@H]3N2C1=O	inconclusive: 6.16%	
CCN1/C(=C/c2ccc3ccccc3[n+]2CCCS(=O)(=O)[O-])C=Cc2cc(C)ccc21	inconclusive: 17.2%	
Cc1ccc(C)c(Oc2nnnn2-c2ccccc2)c1	inactive: -12.2%	
C[N+](C)(C)CCCC(=O)c1ccc2c(c1)OCO2	inactive: 3.28%	
COc1ccc(S(=O)(=O)N2CCCCC2)cc1NC(=O)CSc1ncnc2ccccc12	inconclusive: -12.4%	
COC(=O)c1cccc(C(=O)Nc2ccc(F)cc2)n1	inconclusive: -27.6%	
COc1cc(C(=O)OC2CC3CCC2(C)C3(C)C)ccc1OC(C)=O (stereo not drawn)	inconclusive: 21.8%	
Cc1ccc(-n2c(-c3ccco3)n[nH]c2=S)cc1	inactive: 14.7%	
Cc1occc1C(=O)NNC(=S)Nc1ccccc1		inconclusive: 5.17 µM [falling, partial curve]
Cc1ccc(-c2noc(CSc3nnc(Cc4ccccc4)n3-c3ccc(Cl)cc3)n2)cc1	inconclusive: 2.91%	
O=C(CSc1ccc(-c2ccc3c(c2)OCO3)nn1)Nc1nccs1	inactive: -1.01%	

SMILES	activity change, negative = inhibition	Potency
COc1ccc(NC(=S)N(CCN2CCOCC2)C2CCN(C(C)=O)CC2)cc1Cl	inconclusive: 12.3%	
Nc1ncnc2c1ncn2C1OC(CO)C(O)C1N (stereo not drawn)	inconclusive: 6.67%	
COc1ccc(CN2CCN(Cc3cccc(Oc4ccccc4)c3)CC2)c(OC)c1OC	inactive: -12.6%	
CCc1ccc(N2CC(C(=O)OCC(=O)Nc3ccccc3C)CC2=O)cc1 (stereo not drawn)	inconclusive: -2.47%	
NC(=O)Cn1c(=O)n(CCCC(=O)NC2CCN(Cc3ccccc3)CC2)c(=O)c2ccccc21	inconclusive: 4.29%	
O=C(Cn1cc(C(F)(F)F)ccc1=O)N1CCc2ccccc2C1	inconclusive: 0.129%	
c1ccc(Nc2nc(-c3ccccc3)ns2)cc1		inconclusive: 22.4 µM [falling, single point]
O=C1c2ccccc2CC1Sc1nnc(-c2ccncc2)o1 (stereo not drawn)	inactive: 3.68%	
Cc1ccc(NC(=O)CN(C)C(=O)c2cccnc2Nc2cccc(C(F)(F)F)c2)cc1	inactive: 15.8%	
CN(Cc1ccc(F)cc1)C(=O)c1ccc(NS(=O)(=O)c2ccccc2)cc1	inactive: 1.49%	
CCOC(=O)C1=C(C)NC(=O)NC1	inconclusive: -0.285%	
COc1ccc(-c2csc(NC(=O)Cc3cccc4ccccc34)c2C(=O)O)cc1	inconclusive: 0.134%	
COc1ccc(-c2csc(-c3cccs3)n2)c(OC)c1	inconclusive: 0.786%	
Cc1cccc(NC(=O)NCC(F)(F)F)n1		inconclusive: 1.16 µM [falling, full curve, poor fit]
Cc1cc(C)c(NC(=O)c2oc3ccccc3c2COc2ccccc2)c(C)c1		inconclusive: 3.66 µM [falling, partial curve, poor fit]
CCS(=O)(=O)C1=NN2C(=N)/C(=C\c3ccc(OC(=O)c4ccco4)c(Br)c3)C(=O)N=C2S1		inconclusive: 6.31 µM [falling, partial curve]
COc1ccc(C(=O)NCc2ccc3c(c2)cc(C)n3C)cc1OC	inactive: 7.48%	
O=C(NCc1ccccc1CN1CCCC1)c1cccc(N2CCCC2=O)c1	inconclusive: -2.83%	
CCCC(C(=O)O)N1C(=O)/C(=C/c2cccn2C)SC1=S (stereo not drawn)	inconclusive: 12.7%	
COc1ccc2[nH]c(=O)c(CNc3ccccc3)cc2c1	inconclusive: 12.4%	
O=C(Nc1ccccc1NS(=O)(=O)c1ccc(F)cc1)C1CCC1	inactive: -1.94%	

Quoted at random: 4 entries already listed, in no set order.
SMILES	activity change, negative = inhibition	Potency
COC(=O)c1ccc(N/C=C/C(=O)c2ccccc2)cc1	inconclusive: -32.6%	
C=CCN=Cc1c(C)[nH]n(-c2ccccc2)c1=O	inactive: 16.8%	
Cc1cc(C)c(NC(=O)c2oc3ccccc3c2COc2ccccc2)c(C)c1		inconclusive: 3.66 µM [falling, partial curve, poor fit]
COc1ccc(CN2CCN(Cc3cccc(Oc4ccccc4)c3)CC2)c(OC)c1OC	inactive: -12.6%	

Next records follow:

SMILES	activity change, negative = inhibition	Potency
COc1ccccc1-c1cc(C(=O)NC2CCCC2)no1	inconclusive: 232%	
OC[C@@H](O)[C@@H](O[C@H]1O[C@H](CO)[C@@H](O)[C@H](O)[C@H]1O)[C@H](O)[C@@H](O)CO	inactive: 7.71%	
Fc1ccc(-c2nnc(CN3CCC(c4nc5ccccc5s4)CC3)o2)cc1	inconclusive: -1.53%	
COc1ccc(C2=Nc3cc(C)ccc3OC2)cc1	inconclusive: -8.04%	
O=C(O)c1cccc(NC(=S)N/N=C/c2c[nH]c3ccccc23)c1	inconclusive: 353%	
O=c1cc(C(Cl)(Cl)Cl)oc2c1ccc1ccccc12	inconclusive: 4.58%	
COCCCNc1nc2nonc2nc1N1CCC(C(C)N2CCOCC2)CC1 (stereo not drawn)	inconclusive: 15.5%	
O=C(c1ccccc1O)N1N=C(c2ccccc2)CC1(O)C(F)(F)F (stereo not drawn)	inconclusive: -17.5%	
O=C(CSc1nc(=O)[nH]c2c1CCCC2)NCc1ccc(Cl)cc1	inactive: 1.5%	
COc1cccc(NC(=O)C(=O)NCCc2ccc(F)cc2)c1		inconclusive: 35.5 µM [rising, single point]
COc1cc(C=O)c(Br)cc1OCc1ccc(C)cc1	inconclusive: 14.9%	
CCOC(=O)CCCCC(=O)c1[nH]c(=O)[nH]c1CSc1nc(C)cc(=O)[nH]1	inconclusive: 3.09%	
N#CCSc1n[nH]c2nc3c(c(=O)n12)C1(CCCC1)Cc1ccccc1-3	inconclusive: 12.1%	
COC(=O)c1ccc(NC(=O)CSc2nc3ccccc3c(=O)[nH]2)cc1		inconclusive: 1.46 µM [falling, full curve]
CCN(CC)S(=O)(=O)c1cnccc1N1CCN(c2cccc(Cl)c2)CC1	inconclusive: -5.62%	
COC(=O)COc1ccc(-c2ccc(F)cc2)cc1C=O	inconclusive: 16.3%	
NS(=O)(=O)c1cc(C(=O)OCC(=O)Nc2ccc(N3CCCCC3)cc2)ccc1Cl	inconclusive: 10.8%	
Cc1cccc(N2N=C(C(=O)Nc3ccc(Cl)c(S(=O)(=O)N4CCOCC4)c3)CCC2=O)c1	inconclusive: -0.99%	
COc1ccccc1CNC(=O)CCC1N=C2c3ccccc3N=C(SCC(=O)NCCc3ccccc3)N2C1=O (stereo not drawn)	inconclusive: 4.5%	
O=C(Nc1nc(-c2nc3ccccc3s2)cs1)C1COc2ccccc2O1 (stereo not drawn)		inconclusive: 3.66 µM [rising, full curve, poor fit]
